Taken from: PubChem BioAssay AID504804 (Drosophila RNAi Screening Center, 2011)
The deposit covers about 19,000 reagents; below is an unselected part of those that have a named target and a result. Over the whole deposit, 47 (0.25%) are marked active. 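Signals are raw, not normalised; exact z-scores behind calls not deposited; actives needed confirmation, so some wells reaching 2 SD are inactive.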 A plus sign joins genes that one reagent is predicted to hit. Reagent sequences are not shown.

Screen: 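Knock-downs shielding fly cells from apoptosis caused by DNA damage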 (primary screen)
System: Drosophila Kc cells
Reagents: long dsRNA against Drosophila genes, 0.5 µg dsRNA per well
Timing: 96 h (48 h knock-down, then 48 h drug)
Conditions: doxorubicin 5 µg/ml for 48 h, added 48 h after dsRNA
Measurement: 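Viability measured as cellular ATP by luminescence after 48 h knock-down then 48 h doxorubicin at 5 µg/ml; unnormalised plate counts for each replicate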
Reading the numbers: raw ATP luminescence: higher = more viable cells, protection from doxorubicin
Rule for the call: 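z-score of 2 or more over plate mean in both duplicates, retained only when retests and separate dsRNAs confirm the protection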

CG3061 [DRSC15460] | raw ATP luminescence, replicate 1: 92760; raw ATP luminescence, replicate 2: 95610; Call: inactive
mura [DRSC16483] | raw ATP luminescence, replicate 1: 34927; raw ATP luminescence, replicate 2: 46400; Call: inactive
mura [DRSC16484] | raw ATP luminescence, replicate 1: 20817; raw ATP luminescence, replicate 2: 26830; Call: inactive
Stt3B [DRSC16781] | raw ATP luminescence, replicate 1: 63120; raw ATP luminescence, replicate 2: 95970; Call: inactive
CG18666 [DRSC02694] | raw ATP luminescence, replicate 1: 26023; raw ATP luminescence, replicate 2: 75753; Call: inactive
CG8854 [DRSC07288] | raw ATP luminescence, replicate 1: 74927; raw ATP luminescence, replicate 2: 64533; Call: inactive
CG9215 [DRSC20171] | raw ATP luminescence, replicate 1: 3.98e5; raw ATP luminescence, replicate 2: 3.44e5; Call: inactive
Mcad [DRSC09871] | raw ATP luminescence, replicate 1: 28437; raw ATP luminescence, replicate 2: 28773; Call: inactive
CG14088 [DRSC10092] | raw ATP luminescence, replicate 1: 1.05e5; raw ATP luminescence, replicate 2: 65673; Call: inactive
lig [DRSC07246] | raw ATP luminescence, replicate 1: 58047; raw ATP luminescence, replicate 2: 43973; Call: inactive
lig [DRSC07247] | raw ATP luminescence, replicate 1: 40713; raw ATP luminescence, replicate 2: 57587; Call: inactive
dnr1 [DRSC03948] | raw ATP luminescence, replicate 1: 1.17e5; raw ATP luminescence, replicate 2: 94173; Call: inactive
dnr1 [DRSC04122] | raw ATP luminescence, replicate 1: 52140; raw ATP luminescence, replicate 2: 43180; Call: inactive
CG1537 [DRSC19662] | raw ATP luminescence, replicate 1: 4.07e5; raw ATP luminescence, replicate 2: 3.43e5; Call: inactive
CG14892 [DRSC15014] | raw ATP luminescence, replicate 1: 74980; raw ATP luminescence, replicate 2: 48570; Call: inactive
CG14507 [DRSC14859] | raw ATP luminescence, replicate 1: 55100; raw ATP luminescence, replicate 2: 34480; Call: inactive
aux [DRSC12161] | raw ATP luminescence, replicate 1: 24757; raw ATP luminescence, replicate 2: 23273; Call: inactive
ReepB [DRSC07150] | raw ATP luminescence, replicate 1: 68107; raw ATP luminescence, replicate 2: 63170; Call: inactive
CG7231 [DRSC03034] | raw ATP luminescence, replicate 1: 48737; raw ATP luminescence, replicate 2: 77603; Call: inactive
Gyc89Da [DRSC15008] | raw ATP luminescence, replicate 1: 93010; raw ATP luminescence, replicate 2: 94340; Call: inactive
sei [DRSC04713] | raw ATP luminescence, replicate 1: 56463; raw ATP luminescence, replicate 2: 59390; Call: inactive
CG3546 [DRSC18308] | raw ATP luminescence, replicate 1: 41310; raw ATP luminescence, replicate 2: 54300; Call: inactive

No new results follow: 5 of the entries above.
CG3061 [DRSC15460] | raw ATP luminescence, replicate 1: 92760; raw ATP luminescence, replicate 2: 95610; Call: inactive
mura [DRSC16483] | raw ATP luminescence, replicate 1: 34927; raw ATP luminescence, replicate 2: 46400; Call: inactive
mura [DRSC16484] | raw ATP luminescence, replicate 1: 20817; raw ATP luminescence, replicate 2: 26830; Call: inactive
Stt3B [DRSC16781] | raw ATP luminescence, replicate 1: 63120; raw ATP luminescence, replicate 2: 95970; Call: inactive
CG18666 [DRSC02694] | raw ATP luminescence, replicate 1: 26023; raw ATP luminescence, replicate 2: 75753; Call: inactive

The list goes on:
Hacd2 [DRSC03181] | raw ATP luminescence, replicate 1: 56067; raw ATP luminescence, replicate 2: 1.16e5; Call: inactive
Mnat9 [DRSC14325] | raw ATP luminescence, replicate 1: 55600; raw ATP luminescence, replicate 2: 62620; Call: inactive
mRpL37 [DRSC16062] | raw ATP luminescence, replicate 1: 59600; raw ATP luminescence, replicate 2: 60523; Call: inactive
ppk31 [DRSC13811] | raw ATP luminescence, replicate 1: 1.91e5; raw ATP luminescence, replicate 2: 1.80e5; Call: inactive
ERp60 [DRSC07309] | raw ATP luminescence, replicate 1: 65217; raw ATP luminescence, replicate 2: 46890; Call: inactive
Sol1 [DRSC15263] | raw ATP luminescence, replicate 1: 60040; raw ATP luminescence, replicate 2: 51833; Call: inactive
Sol1 [DRSC15271] | raw ATP luminescence, replicate 1: 53733; raw ATP luminescence, replicate 2: 40813; Call: inactive
Sol1 [DRSC15681] | raw ATP luminescence, replicate 1: 66203; raw ATP luminescence, replicate 2: 58160; Call: inactive
eIF2beta [DRSC11341] | raw ATP luminescence, replicate 1: 66790; raw ATP luminescence, replicate 2: 55690; Call: inactive
dop [DRSC10655] | raw ATP luminescence, replicate 1: 28753; raw ATP luminescence, replicate 2: 24767; Call: inactive
CG7215 + Prx5 [DRSC16214] | raw ATP luminescence, replicate 1: 41170; raw ATP luminescence, replicate 2: 56570; Call: inactive
CG7215 + Prx5 [DRSC16215] | raw ATP luminescence, replicate 1: 40940; raw ATP luminescence, replicate 2: 43730; Call: inactive
CG42686 (retired record) [DRSC15247] | raw ATP luminescence, replicate 1: 13630; raw ATP luminescence, replicate 2: 16420; Call: inactive
CG42686 (retired record) [DRSC15248] | raw ATP luminescence, replicate 1: 55350; raw ATP luminescence, replicate 2: 57890; Call: inactive
